No constants are given. Whether binding was seen depends on the method and setting. Some binding calls cover weakened binding; strength is not graded here.
Target: TrkB, endogenous in rat cortical neuronal cultures (rat (endogenous in cortical neuronal cultures)) (UniProt Q63604)
Assay: ELISA; plates coated with goat anti-TrkB, loaded with lysates of rat cortical cultures (DMSO or LSD 1-100 nM, 1 h) or of PFC or hippocampus of mice killed 1 h after LSD (0.1 mg kg^-1); detected with rabbit anti-PLCγ1

By UniProt entry, the sequences of proteins in these tests, tags left out. Residues count along the entry.
UniProt Q63604, residues 32-821: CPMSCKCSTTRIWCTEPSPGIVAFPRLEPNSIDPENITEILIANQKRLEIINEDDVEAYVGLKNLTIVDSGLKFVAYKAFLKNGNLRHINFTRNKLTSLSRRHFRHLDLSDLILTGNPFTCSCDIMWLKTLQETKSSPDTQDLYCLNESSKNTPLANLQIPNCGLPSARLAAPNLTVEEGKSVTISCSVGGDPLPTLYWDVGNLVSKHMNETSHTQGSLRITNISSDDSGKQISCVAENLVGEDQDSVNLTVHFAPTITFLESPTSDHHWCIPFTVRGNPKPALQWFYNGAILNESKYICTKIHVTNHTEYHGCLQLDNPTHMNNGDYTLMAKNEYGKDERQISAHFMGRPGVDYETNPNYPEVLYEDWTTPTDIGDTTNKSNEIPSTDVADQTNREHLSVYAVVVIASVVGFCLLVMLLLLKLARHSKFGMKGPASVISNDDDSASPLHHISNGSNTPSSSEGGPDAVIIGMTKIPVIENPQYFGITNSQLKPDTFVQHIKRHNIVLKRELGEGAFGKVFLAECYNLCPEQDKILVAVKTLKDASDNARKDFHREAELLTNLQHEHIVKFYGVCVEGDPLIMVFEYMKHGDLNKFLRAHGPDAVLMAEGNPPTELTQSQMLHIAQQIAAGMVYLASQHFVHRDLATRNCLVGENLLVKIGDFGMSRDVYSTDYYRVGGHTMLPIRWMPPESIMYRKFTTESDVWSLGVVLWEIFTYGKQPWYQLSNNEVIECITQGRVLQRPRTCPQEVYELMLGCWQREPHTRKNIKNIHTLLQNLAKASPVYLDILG

B1: phospholipase C gamma 1 (PLCγ1), endogenous in rat cortical neuronal cultures (enzyme, UniProt P10686 1-1290)
chain: MAGVGTPCANGCGPSAPSEAEVLHLCRSLEVGTVMTLFYSKKSQRPERKTFQVKLETRQITWSRGADKIEGSIDIREIKEIRPGKTSRDFDRYQEDPAFRPDQSHCFVILYGMEFRLKTLSLQATSEDEVNMWIKGLTWLMEDTLQAATPLQIERWLRKQFYSVDRNREDRISAKDLKNMLSQVNYRVPNMRFLRERLTDFEQRSGDITYGQFAQLYRSLMYSAQKTMDLPFLETNTLRTGERPELCQVSLSEFQQFLLEYQGELWAVDRLQVQEFMLSFLRDPLREIEEPYFFLDELVTFLFSKENSVWNSQLDAVCPETMNNPLSHYWISSSHNTYLTGDQFSSESSLEAYARCLRMGCRCIELDCWDGPDGMPVIYHGHTLTTKIKFSDVLHTIKEHAFVASEYPVILSIEDHCSIAQQRNMAQHFRKVLGDTLLTKPVDIAADGLPSPNQLKRKILIKHKKLAEGSAYEEVPTSVMYSENDISNSIKNGILYLEDPVNHEWYPHYFVLTSSKIYYSEETSSDQGNEDEEEPKEASGSTELHSSEKWFHGKLGAGRDGRHIAERLLTEYCIETGAPDGSFLVRESETFVGDYTLSFWRNGKVQHCRIHSRQDAGTPKFFLTDNLVFDSLYDLITHYQQVPLRCNEFEMRLSEPVPQTNAHESKEWYHASLTRAQAEHMLMRVPRDGAFLVRKRNEPNSYAISFRAEGKIKHCRVQQEGQTVMLGNSEFDSLVDLISYYEKHPLYRKMKLRYPINEEALEKIGTAEPDYGALYEGRNPGFYVEANPMPTFKCAVKALFDYKAQREDELTFTKSAIIQNVEKQDGGWWRGDYGGKKQLWFPSNYVEEMINPAILEPEREHLDENSPLGDLLRGVLDVPACQIAIRPEGKNNRLFVFSISMPSVAQWSLDVAADSQEELQDWVKKIREVAQTADARLTEGKMMERRKKIALELSELVVYCRPVPFDEEKIGTERACYRDMSSFPETKAEKYVNKAKGKKFLQYNRLQLSRIYPKGQRLDSSNYDPLPMWICGSQLVALNFQTPDKPMQMNQALFMAGGHCGYVLQPSTMRDEAFDPFDKSSLRGLEPCVICIEVLGARHLPKNGRGIVCPFVEIEVAGAEYDSTKQKTEFVVDNGLNPVWPAKPFHFQISNPEFAFLRFVVYEEDMFSDQNFLAQATFPVKGLKTGYRAVPLKNNYSEDLELASLLIKIDIFPAKENGDLSPFSGTSLRERASDASSQLFHVRAREGSFEARYQQPFEDFRISQEHLADHFDSRERRAPRRTRVNGDNRL
  binding: binds
